PubChem BioAssay AID1259280, Sanger Institute, 2017
Here is an unselected part of 794 reagents. 12 of them (1.5%) were called active. 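Calls cover knock-down without drug only; synergy scores stand apart, values above 0.15 being treated as synergy.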 No viability above 1 is reported: the scale is capped. Not all columns of the deposit are shown. Not given: the amount of reagent, the time to read-out.

Purpose: 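Essential kinases and drug-combination synergies in SNU407 cells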 (primary screen)
System: human SNU407 colorectal cancer cells
Knock-down reagent: siRNA pool against human genes
Challenge: anchor drugs BYL719 at 1 µM, cetuximab at 5 µg/ml or trametinib at 10 nM, or DMSO vehicle alone; exposure time not given
Measured: 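Viability relative to non-targeting control siRNA, expressed as robust z-score, plus a synergy score for each of the three anchor drugs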
Scale: viability z-score, no drug and viability vs control, no drug: higher = more cells survive the knock-down
Active means: 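Essential calls require a no-drug robust viability z-score under -3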
Meaning of the calls: active = essential (knock-down alone kills cells); inactive = no change without drug

{"target gene": "DGUOK", "viability z-score, no drug": -0.774, "viability vs control, no drug (fraction of control)": 0.872, "Call": "inactive"}
{"target gene": "DCLK1", "viability z-score, no drug": -0.092, "viability vs control, no drug (fraction of control)": 0.924, "Call": "inactive"}
{"target gene": "SRPK3", "viability z-score, no drug": 0.901, "viability vs control, no drug (fraction of control)": 1, "Call": "inactive"}
{"target gene": "RAF1", "viability z-score, no drug": 0.505, "viability vs control, no drug (fraction of control)": 0.97, "Call": "inactive"}
{"target gene": "IPPK", "viability z-score, no drug": -0.783, "viability vs control, no drug (fraction of control)": 0.871, "Call": "inactive"}
{"target gene": "CASP8", "viability z-score, no drug": 0.901, "viability vs control, no drug (fraction of control)": 1, "Call": "inactive"}
{"target gene": "FRK", "viability z-score, no drug": 0.447, "viability vs control, no drug (fraction of control)": 0.965, "Call": "inactive"}
{"target gene": "ROR1", "viability z-score, no drug": 0.16, "viability vs control, no drug (fraction of control)": 0.943, "Call": "inactive"}
{"target gene": "CSF1R", "viability z-score, no drug": -0.116, "viability vs control, no drug (fraction of control)": 0.922, "Call": "inactive"}
{"target gene": "MAST1", "viability z-score, no drug": 0.901, "viability vs control, no drug (fraction of control)": 1, "Call": "inactive"}
{"target gene": "TRIB3", "viability z-score, no drug": -0.246, "viability vs control, no drug (fraction of control)": 0.912, "Call": "inactive"}
{"target gene": "MET", "viability z-score, no drug": 0.901, "viability vs control, no drug (fraction of control)": 1, "Call": "inactive"}

Just “viability vs control, no drug (fraction of control)”, for 2 of the entries above:
SRPK3	1
RAF1	0.97
